Measured values: PubChem BioAssay AID504834 (National Center for Advancing Translational Sciences (NCATS), 2011)
The campaign covered roughly 320,000 compounds. About 22,000 (6.9%) were called active. Inconclusive results, whose numbers are uncertain, are shown with a selection of clear calls. The call rests on the fitted dose curve; in most records, active means well fitted inhibition curve with a large enough effect; inconclusive means small, poorly fitted or top-dose-only effect, or another doubt; inactive means no such curve, though single readings can be large or run the other way. A potency beside an inconclusive call is a rough fit, not a confirmed value.

Assay: Primary qHTS for delayed death inhibitors of the malarial parasite plastid, 96 hour incubation
Conditions: P. falciparum luciferase reporter growth; series mostly up to 28.7 µM; activity change, negative = inhibition: at the top concentration
Summary of the method: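 P. falciparum expressing integrated firefly luciferase grown in erythrocytes (2% hematocrit, 0.05% parasitemia final) with compounds for 96 hours at 37 C, 5% CO2. Growth inhibition read as loss of luminescence after adding luciferase detection reagent.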
On the % scale 0 is the no-effect control and ±100 the full control effect; potency means the concentration at half of the fitted maximal effect.

| Structure (SMILES) | Potency | activity change, negative = inhibition |
| --- | --- | --- |
| COc1ccc(C2=NOC(C(=O)Nc3c(C)n(C)n(-c4ccccc4)c3=O)C2)cc1 (stereo not given) | inconclusive: 9.28 µM [inhibitor, single point] | – |
| COc1cc(NS(=O)(=O)c2ccc(NC(=O)COc3ccccc3C)cc2)nc(OC)n1 | inconclusive: 3.7 µM [inhibitor, partial curve, poor fit] | – |
| COc1ccc(CNC(=O)/C=C/c2ccc3[nH]cc(CCN(C)C)c3c2)cc1 | inconclusive: 11.7 µM [inhibitor, single point] | – |
| COc1cc(/C=C2\SC(=S)N(CCC(=O)Nc3ccccc3)C2=O)cc(OC)c1OC | inconclusive: 20.8 µM [inhibitor, single point] | – |
| Cc1nn(S(=O)(=O)c2ccccc2)c(C)c1Sc1ccc([N+](=O)[O-])cc1 | inconclusive: 10.4 µM [inhibitor, partial curve, poor fit] | – |
| Cc1c(C(=O)O)nn(-c2cccc(C(F)(F)F)c2)c(=O)c1C#N | inconclusive: 18.5 µM [inhibitor, single point] | – |
| C#CCOCCOCCOCCNc1nc(N2CCN(C(=O)C([C@@H](C)CC)n3cc(C(N)Cc4ccc(O)cc4)nn3)CC2)nc(N2CCN(C(=O)[C@H](CCC(=O)O)n3cc(C(N)[C@H](C)CC)nn3)CC2)n1 (stereo not given in full) | inconclusive: 20.8 µM [inhibitor, partial curve, poor fit] | – |
| CCOP(=O)(C(NC(=O)c1ccccc1Cl)=C(Cl)Cl)c1ccccc1 (stereo not given) | inconclusive: 18.5 µM [inhibitor, partial curve, poor fit] | – |
| COc1ccc([C@@H]2CC=C(C(=O)O)[C@H](c3ccc(F)cc3)N2S(=O)(=O)c2ccccc2C)cc1 | inconclusive: 18.5 µM [inhibitor, single point] | – |
| COc1cc(/C=N/NC(=O)CN(Cc2ccco2)S(=O)(=O)c2ccccc2)ccc1O | inconclusive: 3.29 µM [inhibitor, partial curve] | – |
| CC(=O)c1cccc(NC(=O)c2cc(-c3ccncc3)nc3ccccc23)c1 | inconclusive: 18.5 µM [inhibitor, single point] | – |
| Cc1ccccc1CN1C(=O)CSc2ccc(C(=O)N3CCOCC3)cc21 | inconclusive: 9.28 µM [inhibitor, partial curve, poor fit] | – |
| Cc1nc(Nc2ccccc2F)c2nnn(Cc3ccccc3Cl)c2n1 | inconclusive: 4.65 µM [inhibitor, partial curve, poor fit] | – |
| O=C(Nc1ccc(CN2CCS(=O)(=O)CC2)cc1)c1ccc(Cl)cc1 | – | inactive: -6.68% |
| CS(=O)(=O)N1CCN(c2ccc(NC(=S)NC(=O)c3ccc4c(c3)OCO4)cc2)CC1 | inconclusive: 18.5 µM [inhibitor, single point] | – |
| COc1ccccc1/C=N/NC(=O)CSc1cc(C)nc2ccccc12 | inconclusive: 0.0029 µM [inhibitor, full curve, poor fit] | – |
| COc1ccc(NC(=O)CCOc2ccccc2C)cc1S(=O)(=O)N1CCCCC1 | inconclusive: 2.33 µM [inhibitor, full curve] | – |
| O=C(CN1CCN(Cc2ccccc2Cl)C1=O)NCc1ccccn1 | – | inactive: -3.85% |
| CC(=O)c1sc(N/N=C/c2ccc(C(C)C)cc2)nc1C | inconclusive: 16.5 µM [inhibitor, single point] | – |
| CC1=NN(c2ccccc2)C(=O)C1 | inconclusive: 3.01 µM [inhibitor, full curve, poor fit] | – |

| Structure (SMILES) | Potency | activity change, negative = inhibition |
| --- | --- | --- |
| CN1C(=O)N(CC(=O)Nc2sccc2C(N)=O)C(=O)C12CCCCC2 | inconclusive: 8.28 µM [inhibitor, partial curve] | – |
| O=C(CSc1nnc(C2CC2)n1C1CC1)c1ccccc1F | inconclusive: 18.5 µM [inhibitor, single point] | – |
| CC(C)C(NS(=O)(=O)/C=C/c1ccccc1)C(=O)NCc1ccc(F)cc1 (stereo not given) | inconclusive: 8.28 µM [inhibitor, partial curve, poor fit] | – |
| CC(=O)c1ccc(NC(=O)CSc2nnc(NC(=O)C3CC3)s2)cc1 | inconclusive: 20.8 µM [inhibitor, partial curve, poor fit] | – |
| Cc1ccc(C(=O)NCc2nc3ccccc3[nH]2)o1 | – | inactive: 4.82% |
| CC(=O)c1cccc(N=Nc2c(C)[nH]c3ccccc23)c1 | inconclusive: 18.5 µM [inhibitor, single point] | – |
| COc1ccccc1/C=C1\SC(=S)N(CCC(=O)NCCc2ccc(O)cc2)C1=O | inconclusive: 7.38 µM [inhibitor, partial curve] | – |
| Cn1c(=O)n(C)c2cc(NC(=O)c3ccccc3[N+](=O)[O-])c(Br)cc21 | inconclusive: 18.5 µM [inhibitor, single point] | – |
| CCOC(=O)C1CCN(C(=O)CCS(=O)(=O)c2ccc3c(c2)n(C)c(=O)c(=O)n3C)CC1 | – | inactive: 23.6% |
| COc1ccccc1N(CC(=O)NCc1ccccc1)S(C)(=O)=O | inconclusive: 14.7 µM [inhibitor, partial curve] | – |
| O=[N+]([O-])c1ccccc1Nc1cccnc1 | – | inactive: 22.6% |
| O=C(COC(=O)C1CCN(S(=O)(=O)c2cccs2)CC1)c1cc2ccccc2o1 | inconclusive: 0.415 µM [inhibitor, partial curve, poor fit] | – |
| CCOc1ccc(CC(=O)N2CCN=C2SC)cc1 | – | inactive: 2.11% |
| CNS(=O)(=O)c1cccc(C(=O)OCC(=O)c2c(N)n(C)c(=O)n(C)c2=O)c1 | inconclusive: 11.7 µM [inhibitor, partial curve, poor fit] | – |
| CC1CCCN(CCCCOc2cccc(Br)c2)C1 (stereo not given) | inconclusive: 18.5 µM [inhibitor, single point] | – |
| Cc1ccc2nc(Cl)c(CN(Cc3cccs3)C(=O)C3CC3)cc2c1 | inconclusive: 16.5 µM [inhibitor, partial curve, poor fit] | – |
| Cc1ccc(C(C)C)c(OCCn2ccnc2C)c1 | active: 11.7 µM | – |
| O=C(OCC(=O)c1c[nH]c2ccccc12)c1ccco1 | active: 5.22 µM | – |
| COc1cccc(C(N)CC(=O)O)c1 (stereo not given) | active: 8.28 µM | – |
| Cc1ccc(CNS(=O)(=O)c2cc3c4c(c2)C(C)C(=O)N4CCC3)cc1 (stereo not given) | inconclusive: 11.7 µM [inhibitor, single point] | – |

As entered above:
Value of `CC1CCCN(CCCCOc2cccc(Br)c2)C1` (stereo not given) under Potency: inconclusive: 18.5 µM [inhibitor, single point]
Value of `Cc1ccc(C(C)C)c(OCCn2ccnc2C)c1` under Potency: active: 11.7 µM
